Data: patent publication US12378296B2, “Glucagon analogues as long-acting GLP-1/glucagon receptor agonists in the treatment of fatty liver disease and steatohepatitis” (Boehringer Ingelheim International GmbH, priority 2020, dated 2025)
For some of these results: Part of at least one peptide drawing is inferred or uncertain, most often the ends. At least one structure is not confirmed: it was looked up by name or label, or the drawing left a doubt.

Experiments:
DIO mice = test: Effect on fatty liver in DIO mice (liver triglycerides, plasma ALT); format: in vivo, C57BL/6J mice; conditions: for reduction of liver triglycerides: day 29, 12 h fast, vehicle on high fat diet 203 mg/g liver; for reduction of ALT in plasma: vehicle on high fat diet 404 U/l
[1] = test system: mice with AMLN-diet-induced NASH; test: Murine diet-induced NASH model (AMLN diet); format: in vivo, C57BL/6J mice; conditions: for decrease in NAS versus baseline: vehicle increased by 0.9 points; for steatosis score after 8 weeks of treatment: vehicle 3; for body weight after 8 weeks of treatment: baseline 38-40 g; for NAFLD activity score (NAS) after 8 weeks of treatment (mean rank): vehicle 6.2; for inflammation score after 8 weeks of treatment: vehicle 2.3; for ballooning score after 8 weeks of treatment: vehicle 0.9
[2] = test system: patients with biopsy proven NASH; conditions: patients with overweight or obesity and biopsy proven NASH; placebo 9%; cited from earlier work

## CC[C@H](C)[C@H](NC(=O)[C@H](Cc1ccccc1)NC(=O)[C@H](CC(=O)O)NC(=O)[C@H](CCCCN)NC(=O)[C@H](C)NC(=O)[C@H](C)NC(=O)[C@H](CCCNC(=N)N)NC(=O)[C@H](CCC(=O)O)NC(=O)[C@H](CC(=O)O)NC(=O)[C@H](CC(C)C)NC(=O)[C@H](Cc1ccc(O)cc1)NC(=O)[C@H](CCCCN)NC(=O)[C@H](CO)NC(=O)[C@H](Cc1ccc(O)cc1)NC(=O)[C@H](CC(=O)O)NC(=O)[C@H](CO)NC(=O)[C@@H](NC(=O)[C@H](Cc1ccccc1)NC(=O)[C@@H](NC(=O)CNC(=O)[C@H](CCC(N)=O)NC(=O)C1(NC(=O)[C@@H](N)Cc2c[nH]cn2)CCC1)[C@@H](C)O)[C@@H](C)O)C(=O)N[C@@H](CCCCNC(=O)CNC(=O)CNC(=O)[C@H](CO)NC(=O)CNC(=O)[C@H](CO)NC(=O)CNC(=O)CC[C@H](NC(=O)CCCCCCCCCCCCCCCCC(=O)O)C(=O)O)C(=O)N[C@@H](Cc1c[nH]c2ccccc12)C(=O)N[C@@H](CC(C)C)C(=O)N[C@@H](CCC(=O)O)C(=O)N[C@@H](CO)C(=O)N[C@@H](C)C(N)=O [Compound 5]
DIO mice; 10 nmol/kg qd (40 μg/kg) s.c.
  reduction of liver triglycerides: 63 mg/g
DIO mice; 10 nmol/kg qd s.c.
  reduction of ALT in plasma: 250 U/l
DIO mice; 30 nmol/kg qd (120 μg/kg) s.c.
  reduction of liver triglycerides: -146 mg/g
DIO mice; 30 nmol/kg qd s.c.
  reduction of ALT in plasma: −347 U/l
[1]; 80 μg/kg qd, 8 weeks, vehicle increased by 0.2
  change in fibrosis score versus baseline: remained unchanged
[1]; 80 μg/kg qd, 8 weeks
  decrease in NAS versus baseline: 2.0 points
[1]; 80 μg/kg qd
  steatosis score after 8 weeks of treatment: 1.5
[1]; 120 μg/kg qd s.c.
  body weight after 8 weeks of treatment: 32.0 g
[1]; 120 μg/kg qd, 8 weeks, vehicle increased by 0.2
  decrease in fibrosis score versus baseline: 0.1
[1]; 120 μg/kg qd, 8 weeks
  decrease in NAS versus baseline: 2.5 points
[1]; 120 μg/kg qd
  steatosis score after 8 weeks of treatment: 1.3
  NAFLD activity score (NAS) after 8 weeks of treatment (mean rank): 3.3
[1]; 160 μg/kg qd s.c.
  body weight after 8 weeks of treatment: 31.2 g
[1]; 160 μg/kg qd, 8 weeks, vehicle increased by 0.2
  decrease in fibrosis score versus baseline: 0.2
[1]; 160 μg/kg qd, 8 weeks
  decrease in NAS versus baseline: 2.4 points
[1]; 160 μg/kg qd
  steatosis score after 8 weeks of treatment: 1.2
  NAFLD activity score (NAS) after 8 weeks of treatment (mean rank): 3.2
[1]; all doses (80, 120, 160 μg/kg qd), not statistically significant
  inflammation score after 8 weeks of treatment: 2
[1]; any dose (80, 120, 160 μg/kg qd)
  ballooning score after 8 weeks of treatment: 0

## CCCCCCCCCCCCCCCC(=O)N[C@@H](CCC(=O)NCCCC[C@H](NC(=O)[C@H](C)NC(=O)[C@H](C)NC(=O)[C@H](CCC(N)=O)NC(=O)CNC(=O)[C@H](CCC(=O)O)NC(=O)[C@H](CC(C)C)NC(=O)[C@H](Cc1ccc(O)cc1)NC(=O)[C@H](CO)NC(=O)[C@H](CO)NC(=O)[C@@H](NC(=O)[C@H](CC(=O)O)NC(=O)[C@H](CO)NC(=O)[C@@H](NC(=O)[C@H](Cc1ccccc1)NC(=O)[C@@H](NC(=O)CNC(=O)[C@H](CCC(=O)O)NC(=O)[C@H](C)NC(=O)[C@@H](N)Cc1cnc[nH]1)[C@@H](C)O)[C@@H](C)O)C(C)C)C(=O)N[C@@H](CCC(=O)O)C(=O)N[C@@H](Cc1ccccc1)C(=O)N[C@H](C(=O)N[C@@H](C)C(=O)N[C@@H](Cc1c[nH]c2ccccc12)C(=O)N[C@@H](CC(C)C)C(=O)N[C@H](C(=O)N[C@@H](CCCNC(=N)N)C(=O)NCC(=O)N[C@@H](CCCNC(=N)N)C(=O)NCC(=O)O)C(C)C)[C@@H](C)CC)C(=O)O [Liraglutide, reference compound]
DIO mice; 10 nmol/kg bid (40 μg/kg bid) s.c.
  reduction of liver triglycerides: -27 mg/g
DIO mice; 10 nmol/kg bid s.c.
  reduction of ALT in plasma: −188 U/L
[1]; 400 μg/kg qd, 8 weeks, vehicle increased by 0.2
  baseline change of the fibrosis score: 0.1
[1]; 400 μg/kg qd, 8 weeks
  decrease in NAS versus baseline: 1.8 points
[1]; 400 μg/kg qd
  ballooning score after 8 weeks of treatment: 0.1
  inflammation score after 8 weeks of treatment: 1.9
  steatosis score after 8 weeks of treatment: 2.1
  NAFLD activity score (NAS) after 8 weeks of treatment (mean rank): 4.1
[2]
  resolution of NASH, share of patients: 39%
